# Reference: the supplement of paper PMC3334620
# Whole data set: some 33,000 sequences, median “E-score (-0.5 to 0.5)” near -0.015, cut for the highest 2% near 0.3. The list shows a part of the results.
# Molecular target: T1, Abf1 (UniProt P14164)
# T1 sequence: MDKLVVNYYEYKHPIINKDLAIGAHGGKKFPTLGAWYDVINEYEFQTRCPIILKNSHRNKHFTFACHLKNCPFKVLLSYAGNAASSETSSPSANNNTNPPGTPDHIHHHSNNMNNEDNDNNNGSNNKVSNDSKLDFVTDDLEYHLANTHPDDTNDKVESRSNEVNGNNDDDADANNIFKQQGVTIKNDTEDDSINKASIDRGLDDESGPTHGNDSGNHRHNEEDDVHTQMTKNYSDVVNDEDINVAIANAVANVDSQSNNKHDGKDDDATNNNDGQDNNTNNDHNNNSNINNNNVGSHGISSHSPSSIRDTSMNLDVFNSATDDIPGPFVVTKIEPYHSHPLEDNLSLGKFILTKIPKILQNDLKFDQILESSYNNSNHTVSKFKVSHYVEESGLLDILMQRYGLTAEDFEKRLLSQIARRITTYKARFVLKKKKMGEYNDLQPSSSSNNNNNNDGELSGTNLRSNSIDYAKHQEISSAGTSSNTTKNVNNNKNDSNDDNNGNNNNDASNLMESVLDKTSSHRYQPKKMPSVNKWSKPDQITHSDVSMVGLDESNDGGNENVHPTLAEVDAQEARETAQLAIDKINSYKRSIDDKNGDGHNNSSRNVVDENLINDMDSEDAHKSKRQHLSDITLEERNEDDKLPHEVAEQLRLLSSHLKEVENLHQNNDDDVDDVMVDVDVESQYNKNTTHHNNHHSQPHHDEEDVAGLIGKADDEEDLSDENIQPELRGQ
# Assay: PBM E-score (8-mer binding enrichment) (E-score (-0.5 to 0.5)); higher = stronger / more preferred TF binding
# Conditions: protein concentration: 200 nM; construct: GST-full length
# Outline: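 Universal all-10-mer Agilent arrays, double-stranded by primer extension on fresh or once-stripped slides, were probed with about 100-200 nM GST-tagged yeast transcription factors made by PURExpress. Fluorescent anti-GST detected bound protein, and masliner normalised the scans. E-scores from the Universal PBM Analysis Suite were given to each ungapped eight-base word pooled with its reverse complement.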
row,Sequence,PBM E-score
1,ACACGTGG,0.187
2,ATGACAGG,-0.0297
3,AAATGCAT,0.0476
4,TGCAGGCA,-0.169
5,CCAATCGC,-0.113
6,AGCAAGGC,-0.144
7,ACCCTTGG,-0.273
8,TCCAGCCA,-0.232
9,TACAGTGA,0.156
10,TACTGCAA,-0.0335
11,ACCTGGAG,-0.0252
12,AACTTGCT,-0.238
13,TATTCCGA,0.119
14,ATTACGTC,0.184
15,CGCATAAC,0.059
16,AACAAGGC,-0.217
17,CACGATTC,0.296
18,GCTCGACA,-0.239
19,CAGGCCTC,-0.312
20,GACTTCCC,-0.129
21,CGAAACAC,0.155
22,GAACCTAA,-0.156
23,GGAGGGAA,-0.206
24,CGCCAAAC,0.00848
25,CCTATACC,-0.126

row,Sequence,PBM E-score
1,AGATTGGA,0.0781
2,GGCGATCA,-0.0321
3,CAGACAGG,-0.104
4,ACGCGGTG,-0.0744
5,AATACAAA,0.175
6,GAAGATGC,-0.402
7,AAGGGCTG,-0.168
8,CCGATATC,0.21
9,ATTGTCCG,0.0278
10,CCATAGCG,-0.00995
11,AATTGCCA,0.0598
12,GGTACAAA,0.0902
13,CTCGATGA,0.0731
14,AACACCTC,-0.111
15,CGCATCGA,0.137
16,AGCCAGCT,-0.0898
17,TATCACCA,0.364
18,AGGACGAA,0.147
19,AATGCCGT,0.197
20,TAAAGCAA,0.117
21,CATTGCAA,-0.111
22,CTCGCCCA,0.0359
23,TGCAGCCA,-0.139
24,AGCCTTCA,-0.0576
25,CTAGTGAC,0.316

row,Sequence,PBM E-score
1,CGCAGTAG,-0.11
2,CATGAGCC,0.0171
3,ATTGGGGA,-0.0124
4,AATCACTA,0.359
5,AGATTTCA,-0.0514
6,TATTAAGA,0.121
7,ATCTATTC,0.114
8,GTATTTGA,0.0879
9,GGAGCGAA,-0.0234
10,ATGGCATC,0.0457
11,GGGTCACA,-0.194
12,GGGCAGTA,0.119
13,CGGTACGC,0.00533
14,CGTCGCAC,0.277
15,ACGGGATG,0.0243
16,CCTGTTCC,-0.125
17,TCGAAGCA,0.0658
18,CGCCATAA,-0.158
19,GAGAACAC,-0.0612
20,GAACCACA,-0.0389
21,CGGACGTC,-0.0193
22,GACGTGAC,0.294
23,ACCCAGAT,-0.105
24,ATAAGTCC,0.123
25,ATCTTGTA,0.123

row,Sequence,PBM E-score
1,TACGGACA,0.156
2,AGAATGTC,0.188
3,GACAGTGA,0.245
4,ACACAATA,0.108
5,TAAGCCAA,0.0419
6,TACACGCA,0.0167
7,GAAAGCGA,0.215
8,AACTGCTA,-0.0282
9,CCCAAAGA,-0.132
10,CAGGTGTC,-0.146
11,ACATCCAT,0.136
12,GATCTAGA,0.00739
13,AACTAAGA,0.0342
14,AGCCTCTG,-0.329
15,GCGAGAGC,0.00542
16,AATTTAAT,0.0969
17,AGCGAAAG,-0.0038
18,AGACAATA,0.167
19,ACCGCTAA,0.198
20,CATTATCA,0.329
21,CGAAAGAG,-0.0561
22,TAGTATGA,0.226
23,CAAATGCA,0.0345
24,AATTTGCT,0.0613
25,GCAAATGA,0.0478

row,Sequence,PBM E-score
1,CTCGGTCA,-0.109
2,AAGTGATC,0.41
3,ATATTGGA,0.123
4,TCAGGAAA,0.0608
5,CCGAGCCA,-0.125
6,TAGTGGGA,-0.186
7,ACCCGGGG,-0.162
8,GATTACGC,0.0809
9,ACACACCA,-0.109
10,GTAGACGA,0.23
11,AGAGCGAG,-0.0427
12,CCTACGCC,-0.0667
13,ATCACGCC,0.253
14,ACATAGGT,0.0314
15,GCATCATA,0.118
16,GACCAACA,0.0668
17,ATAGAAGA,-0.0814
18,AGAGCCCC,-0.113
19,CCACATAC,0.0427
20,ACACTTGA,-0.163
21,GAAAGTAC,0.0499
22,TCATAGAA,0.121
23,GACGATAC,0.278
24,ATAACCTC,-0.0844
25,CAGTGTAG,-0.00192

row,Sequence,PBM E-score
1,ATAGTATG,0.161
2,AGGGTGGA,-0.148
3,ACTTACGA,0.325
4,CCCTGGCA,-0.259
5,TAGGAGGA,-0.29
6,ACCTCAAA,0.046
7,CGGGAAGC,0.0638
8,GGAACTAC,-0.11
9,GAAAAACA,-0.164
10,CACCCGCC,-0.00431
11,AACACCCC,-0.155
12,GCTTTGCA,-0.0776
13,CTGGCGCA,-0.278
14,CTTACGGC,-0.0264
15,AAACCGGA,0.00218
16,CCGTCCTC,0.0345
17,AACCTTTA,-0.0838
18,GACACAGC,0.0794
19,CCCCCGCC,-0.461
20,AGAGTTAT,-0.0554
21,GACGAGTA,0.164
22,CTTTTAGA,-0.028
23,CCAAGTAA,0.0119
24,GTGCCCAC,-0.214
25,AGAACGAG,0.0783

# Part of the list above, tab-delimited.
row	Sequence	PBM E-score
16	CCTGTTCC	-0.125
17	TCGAAGCA	0.0658

# 2 entries from above in a different format:
row	Sequence	PBM E-score
17	TATCACCA	0.364
18	AGGACGAA	0.147

# Additional results

row,Sequence,PBM E-score
1,TCCAGGCA,0.172
2,AACGCTAG,-0.178
3,CCATCATC,0.0859
4,ACGTCTCT,0.00432
5,CGATGTCA,0.257
6,CGTCCAAC,0.0461
7,ACCGCGTG,0.0233
8,CTAGGCTC,-0.173
9,ATATCAAC,0.201
10,GCTCACAA,0.132
11,ATATATAT,-0.0977
12,ACCGGGTA,0.0301
13,AAATATCT,0.0361
14,CAGCATGA,-0.0955
15,AAGACACA,-0.231
16,GTCCCGAA,0.00205
17,ACCGTCTA,0.0278
18,AACACGCT,-0.047
19,AATCATAC,0.106
20,GAGCACGC,0.0137
21,AAAGTCGA,-0.0513
22,ACTCTAGC,-0.187
